From article PMC7819943, “Rice protein-binding microarrays: a tool to detect cis-acting elements near promoter regions in rice”
The other results are listed elsewhere or left out.

By UniProt entry, the sequences of proteins in these tests, tags left out.
UniProt Q0JBA9, entry or part of it: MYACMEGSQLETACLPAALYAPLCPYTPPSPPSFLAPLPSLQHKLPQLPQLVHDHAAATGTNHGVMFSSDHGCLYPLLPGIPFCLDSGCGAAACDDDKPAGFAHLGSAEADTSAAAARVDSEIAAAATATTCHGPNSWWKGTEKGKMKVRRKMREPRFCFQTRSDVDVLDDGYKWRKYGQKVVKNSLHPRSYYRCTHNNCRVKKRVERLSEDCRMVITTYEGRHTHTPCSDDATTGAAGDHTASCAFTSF

target: OsWRKY34 (Oryza sativa, UniProt Q0JBA9 1-250); experiment: protein-binding microarray (RPBM); PBS, 2% BSA, 51.3 ng/ul salmon testes DNA, 50 uM zinc acetate, 200 nM TF, 25 C, 1 h; high values mean tight binding; details: protein: recombinant; tags: N-terminal polyhistidine and DsRed monomer fusion (pET32a); label: CyDye5-dUTP incorporated in the synthesized complementary strand; 3' TTTTT single-stranded linker to array surface; dsDNA, one strand shown
Procedure, shortened: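 In PBS with 2% BSA, salmon testes DNA and 50 µM zinc acetate, 200 nM protein was incubated on a custom Agilent array at 25 °C for 1 h and then washed off. The array had been made double-stranded by primer extension with Cy5-dUTP and blocked with 2% BSA. The proteins were transcription factors fused N-terminally to polyhistidine and DsRed, expressed in E. coli BL21-CodonPlus and purified on Ni–NTA. The binding signal is per-feature fluorescence intensity (arbitrary units) from an Axon 4000B scanner.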

Sequence	binding signal
GTCTTCCTAGGCTTTCTCTTTCAGCTCGATCGATCCACAGCGGAGTCACCTAGTGCAG	9440 fluorescence intensity (a.u.)
ACTATGTTGCTTCTTCCTTAATGCACATATAAATTAATTCCGGAGTCACCTAGTGCAG	8350 fluorescence intensity (a.u.)
CTTTGGGCCACTAGTCCTCTTCATTGGTCTTTTGTTCCCACGGAGTCACCTAGTGCAG	12800 fluorescence intensity (a.u.)
CCCGACCTGGATTGACTACTTTGCCTCCAATTAACCCATTCGGAGTCACCTAGTGCAG	11300 fluorescence intensity (a.u.)
CTCTTCCGCTTCCGCTTCCTTGTTCCTTCCCCTCGAAGCCCGGAGTCACCTAGTGCAG	9940 fluorescence intensity (a.u.)
TACCACTTCTGCATCACGCCGCTGTTCTTGCCGTGCGCTTCGGAGTCACCTAGTGCAG	9380 fluorescence intensity (a.u.)
CCAGCCTACTCCACGTGCCATTCACTTGCCATCCGTGGATCGGAGTCACCTAGTGCAG	8920 fluorescence intensity (a.u.)
CAATCTCTCGCTGTGTCTCTCTCGCGCTCTCCACTAGCACCGGAGTCACCTAGTGCAG	9100 fluorescence intensity (a.u.)
GCTCACAACTCGGACTTTTATTTACTCCTCCATTGTAAAACGGAGTCACCTAGTGCAG	9930 fluorescence intensity (a.u.)
ATTACTCCAACTTTACTACCAAATGGTTTATTACGAGTACCGGAGTCACCTAGTGCAG	8750 fluorescence intensity (a.u.)
ACGTACTCTACTGGCTCGGATTCACTCCCGTCCCGGCCCTCGGAGTCACCTAGTGCAG	10000 fluorescence intensity (a.u.)
TTCACGATTTCCGTCCTCCCTGTCACATTTTTCGTCGTCTCGGAGTCACCTAGTGCAG	8150 fluorescence intensity (a.u.)
TGCTCGCCGCGGTTGTTTCGCTAAGCTTCGTCTGGTTCTTCGGAGTCACCTAGTGCAG	15700 fluorescence intensity (a.u.)
CCCCTCGAAGCCGAATCCGATGGTTCCTCCACCCGTTGACCGGAGTCACCTAGTGCAG	15500 fluorescence intensity (a.u.)
GGGGTTCTATAGGTGGGCAGAGGGGACAGAAGTGGAGGCTCGGAGTCACCTAGTGCAG	8420 fluorescence intensity (a.u.)
TCATCACATCAATGCTTTCCTACACACACAAACTTCCAACCGGAGTCACCTAGTGCAG	8310 fluorescence intensity (a.u.)
TGCTTTGTACGTGTTTAATTTGTTGACTAATGCATGTTTCCGGAGTCACCTAGTGCAG	10100 fluorescence intensity (a.u.)
CCTGTAGCTCATCCAGCAACGTCTTGTCTTCATTGTTCTTCGGAGTCACCTAGTGCAG	13000 fluorescence intensity (a.u.)
GCTAGTATATTCATCCAAAATCCTACCTACAGTATTTATTCGGAGTCACCTAGTGCAG	9810 fluorescence intensity (a.u.)
ATCAATTCATCATATTCTTTCTTTCTAACTGGAGTACACTCGGAGTCACCTAGTGCAG	9250 fluorescence intensity (a.u.)
GCCGCTCGTCCTCTCCGTTGGCAGATGAGTAAACCGCTTCCGGAGTCACCTAGTGCAG	8160 fluorescence intensity (a.u.)
GATCTTCTACTGGTAGTCGCCGTGCAATCTCGCGAGTTCCCGGAGTCACCTAGTGCAG	8720 fluorescence intensity (a.u.)
AGCGCAGGTCTTTTTTTCTTTTTCAATAGCACTGCCTCCACGGAGTCACCTAGTGCAG	8310 fluorescence intensity (a.u.)
GACACCACCACAACGACGGCACCACCTCGTCCTTGCCATGCGGAGTCACCTAGTGCAG	9330 fluorescence intensity (a.u.)
GTTCAGCACTTCAGCCCCGCCGCCGTCTCCGCCGCTCAAACGGAGTCACCTAGTGCAG	11400 fluorescence intensity (a.u.)
CAACACACAACTACTCCCTAGTCTCAAGTCACAACCCACACGGAGTCACCTAGTGCAG	9070 fluorescence intensity (a.u.)
CCCTATGCTTTTCTGCCCGCGACCGTGCTCGCGCTCCACTCGGAGTCACCTAGTGCAG	10200 fluorescence intensity (a.u.)

Rewritten in markdown: entries from further up.

| Sequence | binding signal |
| --- | --- |
| ATTACTCCAACTTTACTACCAAATGGTTTATTACGAGTACCGGAGTCACCTAGTGCAG | 8750 fluorescence intensity (a.u.) |
| TGCTTTGTACGTGTTTAATTTGTTGACTAATGCATGTTTCCGGAGTCACCTAGTGCAG | 10100 fluorescence intensity (a.u.) |

Additional results.

Sequence	binding signal
GCGCGCGCCGGCCTCCGTCTTCCTCCGCGGGTGCGCCACCCGGAGTCACCTAGTGCAG	10400 fluorescence intensity (a.u.)
TTAGCACATGTTTGACCGTTCGTCTTATTCAAAAAATTTACGGAGTCACCTAGTGCAG	10400 fluorescence intensity (a.u.)
GGGAGAGACCCGAGGCAGGTGGGCGGGGAGGGAATCGATGCGGAGTCACCTAGTGCAG	12800 fluorescence intensity (a.u.)
TTTGTAGTTTCACAATCAACATATAAGGACTCCGTTTTTTCGGAGTCACCTAGTGCAG	8700 fluorescence intensity (a.u.)
CTCCATATTTTAATGTATGCCGCCGTTGACTTTTTGTTTACGGAGTCACCTAGTGCAG	20200 fluorescence intensity (a.u.)
ACCCACCACCACCACCACCGGCGCCGCCGCCGCCGCCGCCCGGAGTCACCTAGTGCAG	8180 fluorescence intensity (a.u.)
ACACGCAACATCTCTCTGCCCAATCCTCCTCCCGGCCAATCGGAGTCACCTAGTGCAG	9700 fluorescence intensity (a.u.)
CGCCTCACACCGCGGCCCCTCGCCACCGTCCCTGCGTCGCCGGAGTCACCTAGTGCAG	9800 fluorescence intensity (a.u.)
CATTATGTTTTGACTGCATCAGATCCCGAATTCGTGCCACCGGAGTCACCTAGTGCAG	8930 fluorescence intensity (a.u.)
CTTCAGCTTCTTCTTCGCCATCTCTCCTCCCTGCTGCTCTCGGAGTCACCTAGTGCAG	9230 fluorescence intensity (a.u.)
TTTTTTCTTGGCTCACTCAATCACCTCGCTTACATCGCCACGGAGTCACCTAGTGCAG	9260 fluorescence intensity (a.u.)
GGTGCATCCCACTATCGCTCTTTACACCCTCATTTGCAATCGGAGTCACCTAGTGCAG	10400 fluorescence intensity (a.u.)
CCAATAATATGCATATACACTGCTTACTTGACATGCCTTGCGGAGTCACCTAGTGCAG	8140 fluorescence intensity (a.u.)
CTCTTCGTTCGACCGCTAGACGGTCTTTGCGTTTCTGTTTCGGAGTCACCTAGTGCAG	10800 fluorescence intensity (a.u.)
TAAGGGTATTTTCGTATTCGGGGCTCTTAATTCATCCGCACGGAGTCACCTAGTGCAG	12200 fluorescence intensity (a.u.)
ACACTTCTTAGATAATTCGTTCGTGAGCATAATAGCCTTTCGGAGTCACCTAGTGCAG	8630 fluorescence intensity (a.u.)
CATTTCTCTGTAATGCTTTTCGATTAGGATGCCATTAATTCGGAGTCACCTAGTGCAG	9620 fluorescence intensity (a.u.)
TGGTCAATGTGCATTCGTCCTGTTCCTTTTCTTTCTTCCTCGGAGTCACCTAGTGCAG	8460 fluorescence intensity (a.u.)
AAGATTCAAACATGCCCTTTGAGGGGTGGGAAATCATATCCGGAGTCACCTAGTGCAG	11200 fluorescence intensity (a.u.)
TACACCCAACATGGCCACATGCACCATATCATCGCCAAATCGGAGTCACCTAGTGCAG	11700 fluorescence intensity (a.u.)
CTTACTCTGTCGCCTACTAGTCCACCTCTCACTGTTGTTCCGGAGTCACCTAGTGCAG	11500 fluorescence intensity (a.u.)
GGATTGGTTTTGAGATTGTTCTGTCAGATGGGGATTGTTTCGGAGTCACCTAGTGCAG	12700 fluorescence intensity (a.u.)
ATATCTCGTGTCATCTCTCCTTCATGCATACTGCTCAGTACGGAGTCACCTAGTGCAG	9290 fluorescence intensity (a.u.)
TCCCCGCGTCACCGGCCACCGGACCTCCTCTCTTGCGTCGCGGAGTCACCTAGTGCAG	8580 fluorescence intensity (a.u.)
ACAGTTTCTTCTCGTCACAACTTCCAATTTCCCATCGCCCCGGAGTCACCTAGTGCAG	8660 fluorescence intensity (a.u.)
TCCATGCCGCCGTCGCCGCCGCCGGCGCTCTCCCAGACGACGGAGTCACCTAGTGCAG	9160 fluorescence intensity (a.u.)
TCTCACACACTCTCTCGCACAAACTACATCATTTGGGATTCGGAGTCACCTAGTGCAG	9300 fluorescence intensity (a.u.)
